About 820 (0.21%) of roughly 390,000 compounds were called active. The inconclusive results got no clear call from the source; some entries with a clear call stand among them for comparison. The call rests on the fitted dose curve; in most records, active means well fitted inhibition curve with a large enough effect; inconclusive means small, poorly fitted or top-dose-only effect, or another doubt; inactive means no such curve, though single readings can be large or run the other way. Where the call is inconclusive, the potency comes from a doubtful curve fit.
molecular target: Histone acetyltransferase KAT2A (Homo sapiens) (UniProt Q92830); experiment: qHTS Assay for Inhibitors of GCN5L2; conditions: GCN5L2 HAT assay, ThioGlo1 CoA-SH fluorescence; series mostly up to 58.9 µM
From the text: Histone acetyltransferase (HAT) enzymes transfer a […] group from acetyl-coenzyme A to the epsilon-amino group of conserved lysine residues of N-terminal histone tails. Acetylation results in charge neutralization of this positively charged amino acid, decreasing interactions with the […] backbone and making the DNA more accessible for transcription. HATs have been recognized as an emerging drug target for treatment of cancer, diabetes, asthma, chronic obstructive pulmonary disease, cardiac disease, and viral infection. Protein identified with HAT activity include the […] like 2 (GCN5L2, a.ka. Histone acetyltransferase KAT2A) which acetylates histone H3 at Lys9, 14, 18, 13, and to lesser extent histones H4 and H2B. This activates transcription of the gene by modulating chromatin structure and installing the acetyllysine recognition mark for bromodomain-containing coactivator proteins.
A quantitative high throughput screen was developed to identify small molecule inhibitors. The assay is based on the principle that it measures formation of reduced CoA with the pro-fluorescent maleimide derivative ThioGlo1 that becomes fluorescent upon reaction with the free thiol of CoA.
A large number of artifacts are expected in this primary screen, compounded by the assay format (fluorescent artifacts) and by the high top concentration tested for each substance. This BioAssay data deposition should be used with caution, and counterscreen and secondary assay validation is essential since very few actives from the primary screen are expected to be true inhibitors of GCN5L2.
[2] Yasgar, et al. Compound Management for Quantitative High-Throughput Screening. JALA. 2008 Apr;13(2):79-89.
[3] Inglese, et al. Quantitative high-throughput screening: a titration-based approach that efficiently identifies biological activities in large chemical libraries. Proc Natl Acad Sci. 1;103(31):11473-8. 2006. PMID: 16864780
NIH Molecular Libraries Probe Production Network [MLPCN]
NIH Chemical Genomics Center [NCGC]
Structural Genomics Consortium (SGC)
To each well of a 1,536w plate, 3ul of GCN5L2 (final concentration 20nM, in 50mM HEPES, 0.1mM EDTA (pH 7.5), 0.01% Tween-20 buffer) are added using a Kalypsys dispenser. Only buffer is added to some wells as a control. A Kalypsys pin-tool transferred 23nl of library compound solution in DMSO to each well, as well as the control inhibit garcinol. . Following a 15 min incubation of enzyme with compounds at room temperature, 1ul mixture of ThioGlo1 (50uM final), H3(1-25) peptide (75uM final), and Acetyl-CoA (70uM final) is added. Plates are read immediately on the ViewLux (PerkinElmer) (Ex340nm/Em540nm) for a 0 min read, incubated for 20 min at room temperature, and read again on the ViewLux with the same settings. The initial read was carried out to identify compounds that are potentially fluorescent.
Potency means the concentration at half of the fitted maximal effect.

Chains of the proteins cited; added tags and fusions are not shown.
UniProt Q92830, whole entry, looked up: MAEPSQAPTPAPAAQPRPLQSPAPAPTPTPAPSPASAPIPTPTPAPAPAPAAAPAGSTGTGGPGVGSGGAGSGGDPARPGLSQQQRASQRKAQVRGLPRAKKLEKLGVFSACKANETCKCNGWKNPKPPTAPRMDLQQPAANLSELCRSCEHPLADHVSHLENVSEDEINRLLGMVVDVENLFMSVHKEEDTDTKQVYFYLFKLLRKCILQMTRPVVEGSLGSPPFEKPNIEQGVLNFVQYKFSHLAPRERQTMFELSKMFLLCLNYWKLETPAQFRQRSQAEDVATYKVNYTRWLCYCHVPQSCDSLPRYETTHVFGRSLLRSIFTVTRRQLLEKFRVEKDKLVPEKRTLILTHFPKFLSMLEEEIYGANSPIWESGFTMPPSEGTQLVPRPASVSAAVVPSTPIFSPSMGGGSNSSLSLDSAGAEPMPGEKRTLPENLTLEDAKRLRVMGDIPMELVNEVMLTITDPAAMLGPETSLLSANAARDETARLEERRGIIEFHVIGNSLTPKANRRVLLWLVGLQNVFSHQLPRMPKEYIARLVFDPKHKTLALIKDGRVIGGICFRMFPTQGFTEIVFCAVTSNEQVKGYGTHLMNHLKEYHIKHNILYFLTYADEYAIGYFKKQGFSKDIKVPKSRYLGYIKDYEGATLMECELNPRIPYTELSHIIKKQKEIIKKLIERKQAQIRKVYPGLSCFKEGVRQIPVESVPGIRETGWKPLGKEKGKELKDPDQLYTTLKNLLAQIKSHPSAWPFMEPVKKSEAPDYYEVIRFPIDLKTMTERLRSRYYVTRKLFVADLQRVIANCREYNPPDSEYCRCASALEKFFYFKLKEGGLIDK

SMILES | Potency
CC1=C(C(=O)Nc2ccc(C)cc2C)C(c2sccc2C)n2ncnc2N1 (centres undefined) | inconclusive: 1 µM [inhibitor, single point]
CNC(=O)C(=O)Nc1c(O)c2ccccc2[nH]c1=O | inconclusive: 10 µM [inhibitor, single point]
O=c1c(-c2ccccc2)nc2cnc(N3CCNCC3)nc2n1C1CC1 | inconclusive: 31.6 µM [inhibitor, single point]
CCC(CO)NC(=O)c1ccc(-c2nn(C)c(=O)c3ccccc23)cc1 (centres undefined) | inconclusive: 39.8 µM [inhibitor, single point]
Cc1ccc(NC(=O)CNC(=O)C2CCCCC2)nc1 | inactive
CCOC(=O)C1=C(CSc2nc(CC)c(C)cc2C#N)OC(N)=C(C#N)C1c1ccc(OC)cc1 (centres undefined) | inactive
COc1ccccc1CNC(=O)CSC1=NCCS1 | inactive
Cc1nn(-c2ccc3nncn3n2)c(C)c1CCC(=O)Nc1ccc(OC(F)(F)F)cc1 | inactive
Cc1c(CCC(=O)O)c(=O)oc2cc3occ(-c4ccc(Br)cc4)c3cc12 | inconclusive: 28.2 µM [inhibitor, partial curve]
CC(=O)c1ccc(N2CCN(C(=O)Cn3cnc(S(=O)(=O)N4CCCCC4)c3)CC2)cc1 | inconclusive: 0.708 µM [inhibitor, full curve, poor fit]
Cc1cc(=O)oc2c3c(cc(OCC(=O)N[C@@H](Cc4ccccc4)C(=O)O)c12)OC(C)(C)CC3 | inconclusive: 22.4 µM [inhibitor, single point]
C#C[C@]1(O)CC[C@H]2[C@@H]3CCc4cc(OC)ccc4[C@H]3CC[C@@]21C | inconclusive: 31.6 µM [inhibitor, single point]
Cc1ccc(C2(C)NC(=O)N(CC(=O)Nc3ccc(Cl)c(S(=O)(=O)N4CCCCC4)c3)C2=O)cc1 (centres undefined) | inactive
COc1cc(/C=C2\C(=O)ON=C2c2ccccc2)cc(OC)c1OC | inactive
COc1ccccc1CNC(=O)CC(NS(=O)(=O)c1ccc(C)cc1)c1ccco1 (centres undefined) | inactive
CCC(=O)Nc1c(OC(=O)CC)ccc2c(C)cc(=O)oc12 | inactive
COc1ccc(C2=NN(CC(=O)Nc3cc(C)ccc3C)C(=O)CC2)cc1 | inconclusive: 28.2 µM [inhibitor, partial curve, poor fit]
Cc1ccc(-c2cc3ncc(C(=O)c4cc([N+](=O)[O-])ccc4O)cn3n2)cc1 | inconclusive: 35.5 µM [inhibitor, single point]
O=C(NCCNC(=O)c1ccccn1)c1ccc(Cl)cc1 | inactive
CCOc1ccccc1NC(=O)CN1CCC(NC(=O)c2ccccc2)CC1 | inconclusive: 39.8 µM [inhibitor, single point]
CCN(CC)CCn1c2c(c(SCC(=O)NCc3ccccc3)nc1=O)CCC2 | inactive
CC1=C(C)C(=O)C(CCCCC#CCCCC#CCO)=C(C)C1=O | inconclusive: 25.1 µM [inhibitor, single point]
CNc1nc(N)nc(-c2cc(Cl)ccc2OC)n1 | inconclusive: 0.141 µM [inhibitor, partial curve, poor fit]

SMILES | Potency
CC(C)C(=O)Nc1c2c(nn1-c1ccccc1)CSC2 | inconclusive: 4.47 µM [inhibitor, full curve, poor fit]
COc1ccc(NC(=O)c2cc(C(C)C)on2)cc1OC | inconclusive: 0.631 µM [inhibitor, single point]
CC(=O)c1ccc(S(=O)(=O)N2CCN(C(=O)/C=C/c3ccc4ccccc4n3)CC2)cc1 | inconclusive: 39.8 µM [inhibitor, single point]
Cc1c(CCC(=O)O)c(=O)oc2c(C)c3occ(-c4ccc(Cl)cc4)c3cc12 | inconclusive: 31.6 µM [inhibitor, single point]
O=C(CSc1ccc(-c2ccco2)nn1)Nc1cccc(F)c1 | inconclusive: 25.1 µM [inhibitor, single point]
Cc1ccc(-c2nc(C)c(C(=O)O)s2)cc1 | inconclusive: 7.08 µM [inhibitor, single point]
C=CCOc1ccccc1C1C2=C(CC(C)(C)CC2=O)Nc2c1c(=O)n(C)c(=O)n2C (centres undefined) | inactive
O=C(O)c1ccc2c(c1)C(=O)N(CCc1c[nH]c3ccccc13)C2=O | inconclusive: 4.47 µM [inhibitor, single point]
COc1cc(OC)cc(C(=O)OCC(=O)NCCCc2ccccc2)c1 | inconclusive: 25.1 µM [inhibitor, partial curve, poor fit]
Cn1cnc2c1c(=O)n(Cc1cccc(Br)c1)c(=O)n2C | inconclusive: 39.8 µM [inhibitor, single point]
CCOc1ccc(CCNC(=O)CCCN2C(=O)c3ccccc3C2=O)cc1OCC | inconclusive: 0.794 µM [inhibitor, partial curve, poor fit]
Cc1sc(NC(=O)CN2CCCC2)nc1-c1ccc2c(c1)CCN2C(=O)c1ccc(F)cc1 | inactive
Cc1cccc(OCC(=O)Nc2ccc(N3CCN(C(=O)c4ccccc4)CC3)cc2)c1C | inconclusive: 15.8 µM [inhibitor, partial curve, poor fit]
O=C(CN1CCCCC1)Nc1ccc(NC(=O)c2ccc(Cl)cc2)cc1Cl | inconclusive: 7.08 µM [inhibitor, single point]
O=C(NCc1ccc2c(c1)OCO2)c1cc2ncc(Br)cn2n1 | inactive
CCC(C)(C)NC(=O)C1CCC(CNS(=O)(=O)c2ccc3c(c2)CC(C)N3C(C)=O)CC1 (centres undefined) | inactive
CC(C)CC1Nc2ncnc(N3CCN(c4ccccn4)CC3)c2N(Cc2ccc(Br)cc2)C1=O (centres undefined) | inconclusive: 0.708 µM [inhibitor, single point]
Cc1cccc(CCN2CCC(C(=O)c3ccc(NS(C)(=O)=O)cc3)CC2)n1 | inconclusive: 5.62 µM [inhibitor, partial curve, poor fit]
Cc1ccc2[nH]c(=O)c(CN(Cc3cccs3)C(=S)NCc3ccco3)cc2c1 | inconclusive: 1.41 µM [inhibitor, full curve]
O=C(CCCC(=O)c1ccccc1)NCCc1ccccc1 | inconclusive: 39.8 µM [inhibitor, single point]
Cc1nn(-c2ccccc2)c(N)c1Sc1ccc([N+](=O)[O-])cc1 | inconclusive: 15.8 µM [inhibitor, partial curve, poor fit]
COc1cc(Cl)c(C)cc1NC(=O)CCCN1C(=O)CCC1=O | inactive
O=C(NCCc1ccc(Cl)cc1)C(=O)NCC(c1ccco1)S(=O)(=O)c1ccccc1 (centres undefined) | inactive

SMILES | Potency
O=C(c1cc(COc2ccccc2)on1)N1CCCC(CN2CCOCC2)C1 (centres undefined) | inconclusive: 0.316 µM [inhibitor, full curve, poor fit]
COc1nc(-c2ccccc2)c2cc(C)ccc2n1 | inactive
Cc1ccc(C)c(OCCC(=O)N2CCN(S(=O)(=O)c3cc(F)ccc3F)CC2)c1 | inconclusive: 20 µM [inhibitor, single point]
COc1cc(/C=C2/SC(=S)N(CCC(=O)Nc3ccc(C(=O)O)cc3)C2=O)cc(OC)c1OC | inconclusive: 2.24 µM [inhibitor, partial curve]
COc1ccc(NC(=O)c2c(N)c(C(=O)c3ccc(OC)cc3)n3ccccc23)cc1 | inactive
Cn1c(C(=O)N2CCC(C(=O)N3CCOCC3)CC2)cc2sccc21 | inconclusive: 0.447 µM [inhibitor, full curve, poor fit]
CCCCn1c(NCc2ccccn2)nc2ccccc21 | inactive
O=C(CSc1ccsc1[N+](=O)[O-])NCc1ccco1 | inactive
c1ccc(CSc2nnc(-c3ccco3)c(-c3ccco3)n2)cc1 | inconclusive: 22.4 µM [inhibitor, partial curve]
CCCCNc1nc2ccccc2nc1NS(=O)(=O)c1ccc(F)cc1 | inconclusive: 3.16 µM [inhibitor, single point]
COc1ccccc1C(=O)Nc1c(C(=O)c2ccccc2)oc2ccccc12 | inactive
C=CCOC(=O)C(=O)/C=C/c1csc2ccccc12 | inactive
COc1ccc(Nc2cc(C(=O)NCCCN3CCN(C)CC3)c3ccccc3n2)cc1OC | inactive
Cc1c(CCC(=O)NCc2ccc(F)cc2)c(=O)oc2cc(O)ccc12 | inconclusive: 8.91 µM [inhibitor, full curve, poor fit]
CCN(CC)S(=O)(=O)c1ccc(C(=O)OCC(=O)c2ccc3c(c2)NC(=O)CO3)cc1 | inconclusive: 39.8 µM [inhibitor, single point]
COc1ccc(NC(=S)NC(NC(=O)c2cccc(Cl)c2)C(Cl)(Cl)Cl)c([N+](=O)[O-])c1 (centres undefined) | inactive
Cc1cc(Cl)cc(Br)c1OCCCNCC(C)O (centres undefined) | inactive
C=C(C)COc1ccc2c(C)c(CCC(=O)NC3CC3)c(=O)oc2c1 | inconclusive: 39.8 µM [inhibitor, single point]
CC(C)(C)c1ccc(C(=O)Nc2nc3nc(-c4ccccc4)cc(=O)n3[nH]2)cc1 | inconclusive: 25.1 µM [inhibitor, single point]
O=C(c1ccccc1Oc1ccccc1)N1CCN(c2ccc(F)cc2)CC1 | inconclusive: 39.8 µM [inhibitor, single point]
O=C(CN1CC(=O)Oc2ccccc21)OCC(=O)c1ccccc1 | inconclusive: 39.8 µM [inhibitor, single point]
COc1ccccc1NS(=O)(=O)c1cc(NC(=O)c2ccc3c(c2)OCCO3)ccc1C | inactive
COc1ccc(/C=N/Nc2nc(C)cc(=O)[nH]2)cc1OC | inconclusive: 39.8 µM [inhibitor, single point]

Some of the entries above, set out differently.
SMILES,Potency
O=C(CN1CCCCC1)Nc1ccc(NC(=O)c2ccc(Cl)cc2)cc1Cl,"inconclusive: 7.08 µM [inhibitor, single point]"
C=C(C)COc1ccc2c(C)c(CCC(=O)NC3CC3)c(=O)oc2c1,"inconclusive: 39.8 µM [inhibitor, single point]"

2 entries from above, as labelled records:
COc1ccc(NC(=S)NC(NC(=O)c2cccc(Cl)c2)C(Cl)(Cl)Cl)c([N+](=O)[O-])c1 (centres undefined)
  Potency: inactive
Cc1cc(Cl)cc(Br)c1OCCCNCC(C)O (centres undefined)
  Potency: inactive
